The other results are listed elsewhere or left out.

Amino acid sequences for entries named in this document (tags omitted).
UniProt Q0JBA9, entry or part of it: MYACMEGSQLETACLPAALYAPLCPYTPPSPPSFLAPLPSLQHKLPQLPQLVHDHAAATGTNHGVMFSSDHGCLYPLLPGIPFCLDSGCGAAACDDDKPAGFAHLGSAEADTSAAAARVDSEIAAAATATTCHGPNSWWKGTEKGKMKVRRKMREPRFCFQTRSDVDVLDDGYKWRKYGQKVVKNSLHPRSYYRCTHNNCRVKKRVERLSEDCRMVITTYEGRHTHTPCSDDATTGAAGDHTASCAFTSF

This assay deals with OsWRKY34 (Oryza sativa, UniProt Q0JBA9 1-250). The assay is described as follows: protein-binding microarray (RPBM); PBS, 2% BSA, 51.3 ng/ul salmon testes DNA, 50 uM zinc acetate, 200 nM TF, 25 C, 1 h; high values mean tight binding. The note with it: protein: recombinant; tags: N-terminal polyhistidine and DsRed monomer fusion (pET32a); label: CyDye5-dUTP incorporated in the synthesized complementary strand; 3' TTTTT single-stranded linker to array surface; dsDNA, one strand shown. In a few lines:
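Binding signal here means per-feature fluorescence intensity in arbitrary units. The values were read on an Axon 4000B scanner after a custom Agilent array, double-stranded by primer extension with Cy5-dUTP, was incubated with 200 nM protein at 25 °C for 1 h in PBS with 2% BSA, salmon testes DNA and 50 µM zinc acetate, then washed. The proteins were transcription factors with an N-terminal polyhistidine tag and DsRed, expressed in E. coli BL21-CodonPlus and purified on Ni–NTA.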
With “CTTCTCATTCACCTCCATCTCATCTCCATTACACTGCATGCGGAGTCACCTAGTGCAG”, the binding signal is 9600 fluorescence intensity (a.u.).
Take “TCGCGCCGCCCACTTCGTCATCCTCCTCGCGTACTCCGCTCGGAGTCACCTAGTGCAG”: the binding signal was 9420 fluorescence intensity (a.u.).
For the sequence “CGTACCTAGCCAGCAGATTTATGTTTGTTTGGTTGACTGCCGGAGTCACCTAGTGCAG”, the binding signal was 8060 fluorescence intensity (a.u.).
Consider “GGACGGCGCGGGTGGGTGGGCCCCACAGGGCGGTGACTGACGGAGTCACCTAGTGCAG”, for which the binding signal was 8840 fluorescence intensity (a.u.).
Regarding “CACAATGTCAGGCAACCTCGTCATATATTTGATCCCGCCGCGGAGTCACCTAGTGCAG”, the binding signal is 8470 fluorescence intensity (a.u.).
For the sequence “CACGCACACACCGCGGCGCCGCCCACTCGATCGAAGCACCCGGAGTCACCTAGTGCAG”, the binding signal was 8410 fluorescence intensity (a.u.).
With “CCAATCCTATAAACCGCTACTCTGGTTCCATAATTCTTACCGGAGTCACCTAGTGCAG” the figure was 11100 fluorescence intensity (a.u.).
With “ATATGTCCCGCTGGGGTGTCCACAATCTGCACGCCATATCCGGAGTCACCTAGTGCAG”, the binding signal is 8660 fluorescence intensity (a.u.).
With “GCTTTTCCTGTCAATGTTTGTTTGTGTAATGTTGTTATACCGGAGTCACCTAGTGCAG” the figure was 11600 fluorescence intensity (a.u.); with “ATATATATATATATATATATATATATAATCTACCTTGTAACGGAGTCACCTAGTGCAG”, 9470 fluorescence intensity (a.u.); with “GGAGGAGGAGGTGGTGGTGGTGGTGAAGCCGCGGAGGTGCCGGAGTCACCTAGTGCAG”, 18000 fluorescence intensity (a.u.).
Take “TCCTCGCCTCTCGGGCACGCACCACTGACCACCCTCCTTTCGGAGTCACCTAGTGCAG”: the binding signal was 9010 fluorescence intensity (a.u.).
For “ACATAGAGGGGCGGGTTAATCAGGAGGTAAGAACAAGTGGCGGAGTCACCTAGTGCAG”, the binding signal was 11700 fluorescence intensity (a.u.).
For the sequence “TCCAAGTCCCGCTGCCCTCGCCGCCAATCGGTCGCCCGTACGGAGTCACCTAGTGCAG”, the binding signal is 8990 fluorescence intensity (a.u.).
In the case of “AATACCCTCATGGTCGTTCTTCCACCTCCTTAAATAGCTACGGAGTCACCTAGTGCAG”, the binding signal was 10100 fluorescence intensity (a.u.).
Regarding “TAAATGGTGGTGTTTTTCTCGCTTTGAGTCACATGGTTATCGGAGTCACCTAGTGCAG”, the binding signal is 12100 fluorescence intensity (a.u.).
Turning to “ACCTGCTTTGCCATGGTTCTCTTCCTCCTCCAACTCTGCCCGGAGTCACCTAGTGCAG”, the binding signal is 8210 fluorescence intensity (a.u.).
Take “GTTCTACCAGGGGTCCTGTGTGTGCGTGCATGCATGGCGACGGAGTCACCTAGTGCAG”: the binding signal is 8550 fluorescence intensity (a.u.).
The result for “CTAGAAATCGCCACGTTTCATCCACCCCGCCAACCCCATGCGGAGTCACCTAGTGCAG” reads 8440 fluorescence intensity (a.u.); that for “TCTACTCCTTTTGTCATTATTGTCCTCTAATTTCGTTTTGCGGAGTCACCTAGTGCAG”, 11200 fluorescence intensity (a.u.).
Turning to “TCTCTCTTTTCCTCTGCATCTCCTGCTCCTTTTTGTTTTGCGGAGTCACCTAGTGCAG”, the binding signal is 8160 fluorescence intensity (a.u.).
The result for “GGTAATTCGTACTTTTCCCCTGCTTATATGATCATTGTATCGGAGTCACCTAGTGCAG” reads 10000 fluorescence intensity (a.u.).
The result for “CCAGCCACCATCCCCATATCCCTGCTCTCTGTCTTTCTCCCGGAGTCACCTAGTGCAG” reads 11000 fluorescence intensity (a.u.); that for “ATACTCGTTTTTCGTTTTTTTTTTAGTTGTGCTGCTACCTCGGAGTCACCTAGTGCAG”, 10100 fluorescence intensity (a.u.).
With “GGTAATGGGAGAGGCTGATGTGGCGTGAAATCTCTTGCGTCGGAGTCACCTAGTGCAG” the figure was 9020 fluorescence intensity (a.u.); with “TTCCATTCCGTTAACTTGCACTCCTGTCAATTTCTATATACGGAGTCACCTAGTGCAG”, 8360 fluorescence intensity (a.u.).
Regarding “AGATGCTCATAGGGGTAGGGTGGCCAGCGAGGCGCCTGTGCGGAGTCACCTAGTGCAG”, the binding signal was 9960 fluorescence intensity (a.u.).
For “TGAAGTTGCATTTAATCTCTTTGCATCCAAGTATTTGGAACGGAGTCACCTAGTGCAG”, the binding signal is 8980 fluorescence intensity (a.u.).
The result for “TGGCATGCTTCAGGAAGCTGATATAGGGGTTGGCATTAGTCGGAGTCACCTAGTGCAG” reads 10200 fluorescence intensity (a.u.).
The result for “TGCCGCGGGGTGACCTGTGTACTGTGATCTATATCCTCTCCGGAGTCACCTAGTGCAG” reads 8100 fluorescence intensity (a.u.); that for “ACCATCCAGCGCGTAACCGATTCCCTGTACATTCGGCCGCCGGAGTCACCTAGTGCAG”, 9080 fluorescence intensity (a.u.).
As to “ACGCCTTCTTGCTCTCTATCTCTCTCTTTTTCGCATCCTTCGGAGTCACCTAGTGCAG”, the binding signal was 11100 fluorescence intensity (a.u.).
As to “CTCTACTCGCCAATTTTCCCTTCTTATTTTCGCTATTTCTCGGAGTCACCTAGTGCAG”, the binding signal was 13800 fluorescence intensity (a.u.).
Take “CGGCCCGGCCCATCTATCTCCCAGCTCGCCCGGTCCTTCTCGGAGTCACCTAGTGCAG”: the binding signal was 8610 fluorescence intensity (a.u.).
Regarding “ACTATTTTTTTACTAGTTTACTCTATTGTTAACATGAATACGGAGTCACCTAGTGCAG”, the binding signal was 9660 fluorescence intensity (a.u.).
Turning to “TCGAAAGTTGGAAGTTTGGGGTAGTTGCGGGTGAACTAAACGGAGTCACCTAGTGCAG”, the binding signal is 8930 fluorescence intensity (a.u.).
With “CCACCGTGTGGCAATCGATGTCCACGCCCTTGTCGCCACTCGGAGTCACCTAGTGCAG”, the binding signal is 8400 fluorescence intensity (a.u.).
Turning to “CACCTTCTTTGATCACATGCCTACTTAGCAGTACTTACCACGGAGTCACCTAGTGCAG”, the binding signal was 10700 fluorescence intensity (a.u.).
With “CTCTCTCTTTCTCTCTCTCTCTGCACAACTAAAACTATATCGGAGTCACCTAGTGCAG” the figure was 10100 fluorescence intensity (a.u.); with “GCCGCCACCCACCCACTCGACCGTTGCCACCGCTGCTTCCCGGAGTCACCTAGTGCAG”, 11400 fluorescence intensity (a.u.); with “GCAACGCACACCCGCACGCACGCGCCCACGCCAACGCCACCGGAGTCACCTAGTGCAG”, 8370 fluorescence intensity (a.u.).
With “TTCTCTGTTCCTCCACATTCCTCTCTACCTCCTCATTCATCGGAGTCACCTAGTGCAG”, the binding signal is 11800 fluorescence intensity (a.u.).

The record behind these values is PMC7819943, “Rice protein-binding microarrays: a tool to detect cis-acting elements near promoter regions in rice”.
